Changes are numbered by the printed parent chain. These are yes or no findings as the source states them, for the method shown. Some results given as binding are weak or reduced against the parent protein; the word gives no strength.
Experiments:
[1] = molecular target: soluble cynomolgus GPNMB (recombinant extracellular domain) (cynomolgus); experiment: SPR binding
[2] = molecular target: soluble human GPNMB (recombinant extracellular domain) (human) (UniProt Q14956); experiment: SPR binding
[3] = molecular target: full-length untagged human GPNMB expressed on cells (human) (UniProt Q14956); experiment: cell binding
[4] = molecular target: soluble cynomolgus GPNMB (recombinant extracellular domain) (cynomolgus); experiment: SPR binding kinetics
[5] = molecular target: soluble human GPNMB (recombinant extracellular domain) (human) (UniProt Q14956); experiment: SPR binding kinetics
[6] = molecular target: full-length untagged human GPNMB expressed on cells (human) (UniProt Q14956); experiment: FACS titration on cells
[7] = molecular target: full-length untagged human GPNMB expressed on cells (human) (UniProt Q14956); experiment: FACS on Freestyle293 cells stably expressing human GPNMB; single antibody concentration (not given); APC anti-human IgG secondary; MFI as fold over background
[8] = molecular target: soluble mouse GPNMB-Fc polypeptide (mouse IgG2A Fc) (mouse) (UniProt Q99P91); experiment: FACS ligand binding assay: 2 ug/mL moGPNMB-Fc (mouse IgG2A Fc) pre-complexed with rising antibody, then SVEC4-10 cells; ligand side: unidentified ligand(s) on SVEC4-10 cells; bound moGPNMB-Fc detected with anti-mouse IgG2A
[9] = molecular target: soluble mouse GPNMB-Fc polypeptide (mouse IgG2A Fc) (mouse) (UniProt Q99P91); experiment: FACS ligand binding assay: 2 ug/mL moGPNMB-Fc (mouse IgG2A Fc) pre-complexed with rising antibody, then SVEC4-10 cells; blocked ligand: unidentified ligand(s) on SVEC4-10 cells; bound moGPNMB-Fc detected with anti-mouse IgG2A
[10] = molecular target: soluble mouse GPNMB-Fc polypeptide (Fc of human IgG1 or mouse IgG2A, not specified for the assay) (mouse) (UniProt Q99P91); experiment: FACS ligand binding assay: 2 ug/mL moGPNMB-Fc pre-complexed with rising Fab2, then SVEC4-10 cells; blocked ligand: unidentified ligand(s) on SVEC4-10 cells; bound GPNMB-Fc detected with anti-human IgG1 secondary
[11] = molecular target: soluble human GPNMB-Fc polypeptide (human) (UniProt Q14956); experiment: FACS ligand binding assay: 2 ug/mL huGPNMB-Fc pre-complexed with rising Fab2, then SVEC4-10 cells; blocked ligand: unidentified ligand(s) on SVEC4-10 cells; bound GPNMB-Fc detected with anti-human IgG1 secondary
[12] = molecular target: soluble mouse GPNMB-Fc polypeptide (Fc of human IgG1 or mouse IgG2A, not specified for the assay) (mouse) (UniProt Q99P91); experiment: FACS ligand binding assay: 2 ug/mL moGPNMB-Fc pre-complexed with rising Fab2, then SVEC4-10 cells; ligand side: unidentified ligand(s) on SVEC4-10 cells; bound GPNMB-Fc detected with anti-human IgG1 secondary
[13] = molecular target: soluble human GPNMB-Fc polypeptide (human) (UniProt Q14956); experiment: FACS ligand binding assay: 2 ug/mL huGPNMB-Fc pre-complexed with rising Fab2, then SVEC4-10 cells; ligand side: unidentified ligand(s) on SVEC4-10 cells; bound GPNMB-Fc detected with anti-human IgG1 secondary

By UniProt entry, the sequences of proteins in these tests, tags left out. Residues count along the entry.
UniProt Q14956, residues 23-498: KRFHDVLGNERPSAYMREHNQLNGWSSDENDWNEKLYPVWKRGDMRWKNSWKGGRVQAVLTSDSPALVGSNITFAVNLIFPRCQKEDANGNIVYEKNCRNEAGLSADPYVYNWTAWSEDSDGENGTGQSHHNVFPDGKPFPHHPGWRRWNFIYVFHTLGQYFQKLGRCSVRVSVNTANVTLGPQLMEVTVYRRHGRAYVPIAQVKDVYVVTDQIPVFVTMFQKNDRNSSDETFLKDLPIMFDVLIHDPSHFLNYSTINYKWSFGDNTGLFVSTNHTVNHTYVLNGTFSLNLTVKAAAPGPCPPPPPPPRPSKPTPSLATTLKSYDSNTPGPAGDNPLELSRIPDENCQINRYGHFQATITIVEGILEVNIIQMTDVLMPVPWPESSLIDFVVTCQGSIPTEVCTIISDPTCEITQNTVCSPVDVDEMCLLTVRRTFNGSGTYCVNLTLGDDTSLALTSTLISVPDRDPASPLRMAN
UniProt Q99P91, residues 23-502: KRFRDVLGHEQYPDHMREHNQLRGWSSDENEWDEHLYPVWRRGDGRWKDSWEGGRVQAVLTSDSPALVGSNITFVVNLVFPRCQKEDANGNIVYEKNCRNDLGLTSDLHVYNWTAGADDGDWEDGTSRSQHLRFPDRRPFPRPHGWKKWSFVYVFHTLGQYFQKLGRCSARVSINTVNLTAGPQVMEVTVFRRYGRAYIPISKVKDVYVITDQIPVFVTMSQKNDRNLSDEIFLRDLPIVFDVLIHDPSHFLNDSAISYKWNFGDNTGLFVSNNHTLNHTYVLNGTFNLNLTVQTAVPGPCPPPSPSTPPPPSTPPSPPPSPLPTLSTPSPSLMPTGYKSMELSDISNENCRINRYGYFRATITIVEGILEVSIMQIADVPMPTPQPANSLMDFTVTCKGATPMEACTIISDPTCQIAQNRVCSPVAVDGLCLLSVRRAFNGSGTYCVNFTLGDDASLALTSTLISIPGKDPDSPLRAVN

B1: anti-GPNMB antibody GPN-03 (antibody, human IgG1, V domains shown)
VH: QVQLQQSGPELVKPGASVKLSCKASGYTFTNYYMYWVKQRPGQGLEWIGEINPRNGGTNFNEKFKSKATLTVDKSSSTAYMQLSSLTFEDSAVYYCTTGLAYWGQGTLVTVSA
VL: DVVMTQTPLSLPVSLGDQASISCRSSQSLVHSDGNTYLHWYLQKPGQSPKLLIYKVSTRFSGVPDRFSGSGSGTDFTLKISRVEAEDLGVYFCSQSTHVPWTFGGGTKLEIK
binding [1]: binds
binding [2]: binds
binding [3]: binds
binding [4]: binds
binding [5]: binds
binding [6]: binds
binding [7]: binds

B2: anti-GPNMB antibody GPN-33 (antibody, human IgG1, V domains shown)
VH: EVQLVESGGSLVQPGGSLKLSCVASGYTFSNYWMDWVRQTPGKSLEWIGEINTDGSKTNYAPSIKDRFTISRDNAKSTLYLQMSNVKADDTAIYYCTRGPGAWGQGTSVTVSS
VL: DIVMTQTPLSLSVAIGQSASISCKSSQSLKFSDGKTYLNWVFQSPGQSPKRLIYQVSKLDSGVPDRFSGTGSETDFILKISRVEAEDLGVYYCCQGSYSPWTIGGGTKLELK
binding [8]: binds

B3: anti-GPNMB antibody GPN-42 (antibody, human IgG1, V domains shown)
VH: DVKLVESGEDLVKPGGSLKLSCAASGFTFSSYAMSWVRQTPEKRLEWVAYISSGGDYIYYADTVKGRFTISRDNARNTLYLQMSSLKSEDTAMYYCTRDRYYDYDVRDYYTMDYWGQGTSVTVSS
VL: B1 VL with V3M, D33N, Y41F, Y54F, K55R, T58N, S70R, S96T, W101R, K108T
binding [8]: binds

B4: anti-GPNMB antibody GPN-35 (antibody, human IgG1, V domains shown)
VH: EVQLVESGGGSVRPGRSLKLSCAAAGFTFSDYYMTWVRQAPTKGLEWVASINHDGGGTYYRDSVKGRFTISRDNARSSLYLQMDSLRSEDTGTYYCTTRAGWHWGQGVMVTVSS
VL: DIQMTQSPASLSASLGETVSIECLASEDIYNYLTWYQQKPGKSPQVLIYSASGLQDGVPSRFSGSGSGRQYSLKINGLESEDAATYFCLQDSEYPLTFGSGTKLEIK
binding [9]: binds

B5: anti-GPNMB antibody GPN-48 (antibody, human IgG1, V domains shown)
VH: QVQLQQSGPELVKPGASVKLSCRASGYGFSSFWMNWVKQRPGKGLEWIGRIYPGKGDTLYNGKFKDKATLTADESSSTAYMQLSSLTSEDSAVYFCARSIYYYDYWYFDVWDTGTTVTVSS
VL: DIVMTQSHKFMSTSVGDRVNITCKASQDVNSAIAWYQQKPGQSPKLLIYSASYRFIGVPDRFTGSGSGTGFTFTISSVQAEDLAVYYCQQHYTTPLTFGAGTKLELK
binding [9]: binds

B6: anti-GPNMB antibody GPN-43 (antibody, human IgG1, V domains shown)
VH: EVQLQQSGPELVKPGASVKISCKASGYTFTDYYMNWVRQSHGKSLEWIGDINPYHGGSTYNQKIKVKATLTVDKSSSTAYMELRSLTSEDSAVYYCARNWPYFDYWGQGTTLTVSS
VL: DIQMTQSPASLSASVGETVTITCRASENIYSFLVWYQQKQGKSPQLLVYNAKTLAEGVPSRFSGSGSGTQFSLKISSLQPEDFGSYYCQHHFGTPPYTFGGGTKLEIK
binding [9]: binds

B7: recombinant Fab2 fragment of anti-GPNMB antibody GPN-35 (protein)
VH: B4 VH
VL: B4 VL
binding [10]: binds
binding [11]: binds

B8: recombinant Fab2 fragment of anti-GPNMB antibody GPN-37 (protein)
VH: EVQLVESGGGLVQPGRSLKLSCAASGFTFSSKSGMAWVRQAPTKGLEWVASISNGGGDTYYRDSVKGRFTISRDNAKNTQYLQMDSLRPEDTATYYCARHRDYGYDAYFDYWGQGVMVTVSS
VL: DIQMTQSPASLSASLGETVTIECLASEDIYSSLAWYQQKPGKSPQLLIYDASSLQDGVPSRFSGSESGTQYSLEINSLQSEDAATYFCQQHHDYPYTFGAGTKLELK
binding [12]: binds
binding [11]: binds

B9: recombinant Fab2 fragment of anti-GPNMB antibody GPN-41 (protein)
VH: QLQLQQSGTEVVKPGASVKIPCKASGYAFSSYWMNWVKQRPGKGLEWIGQIYPGDGDTNDNGKFEGKATLTVDKSSNTAYIQLSSLTSEDSAVYFCARSPLHLRGSMDYWGQGTSVTVSS
VL: SIVMTQTPKFLLVSAGDRVTITCKASQSVSNDVAWFQQKPGQSPELLIYSASNRYTGVPDRFTASGYGTDFTFTISAVQAEDLAVYFCQQNYYSPFTFGGGTRLEIK
binding [10]: binds

B10: recombinant Fab2 fragment of anti-GPNMB antibody GPN-43 (protein)
VH: B6 VH
VL: B6 VL
binding [10]: binds

B11: recombinant Fab2 fragment of anti-GPNMB antibody GPN-48 (protein)
VH: B5 VH
VL: B5 VL
binding [10]: binds

B12: recombinant Fab2 fragment of anti-GPNMB antibody GPN-65 (protein)
VH: B9 VH
VL: B9 VL with A64G, A77T
binding [13]: binds
